PubChem BioAssay AID1259254, NCATS | 2017
Shown is one part, drawn at random, of about 59,000 deposited reagents. Of all reagents, about 1,550 (2.6%) were called active. 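G2 share is only a proxy for re-replication; each gene was hit by three separate siRNAs, and active genes were retested.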 Unmarked entries are inactive. Reagents against one gene are numbered here. Further read-outs or replicates are left out here. The record does not give: the amount of reagent.

Purpose: 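Gene knock-downs that lead to re-replication, shown by excess G2 DNA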 (primary screen)
Cell system: human HCT116 colorectal cancer cells
Knock-down reagent: single siRNA against human genes
Duration: 3 days
Measured: 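Imaged Hoechst DNA stain sorts each cell into a cycle phase by DNA amount; per plate, G2 fraction set to 0% for non-targeting and 100% for GMNN siRNA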
Reading the numbers: G2 robust z-score: higher = more G2 cells, more excess DNA replication
Rule for the call: 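An siRNA counts as active if its G2 robust z-score lies at least 5 MADs above the screen median; here such calls match roughly 38% of GMNN control or more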

Gene	reagent no.	G2 robust z-score
CBLL1	1	-0.684
CBLL1	2	0.853
CBLL1	3	1.83
TRIML2	1	-0.438
TRIML2	2	-0.434
TRIML2	3	0.801
PRPS1L1	1	-0.703
PRPS1L1	2	-0.846
PRPS1L1	3	-0.619
PTPN2	1	-0.582
PTPN2	2	0.056
PTPN2	3	-0.414
XRCC4	1	-0.934
XRCC4	2	-0.0305
XRCC4	3	-0.984
ZNF534	1	1.33
ZNF534	2	-0.0117
ZNF534	3	0.502
OPN1SW	1	-1.69
OPN1SW	2	-0.681
OPN1SW	3	0.718
UROS	1	-1.25
UROS	2	0.8
UROS	3	-0.942
PDHA2	1	0.859
PDHA2	2	-0.521
PDHA2	3	-0.364
MCM9	1	4.02
MCM9	2	0.0347
MCM9	3	-1.25
PSMG1	1	1.01
PSMG1	2	-1.24
PSMG1	3	-0.837
PBLD	1	0.2
PBLD	2	0.732
PBLD	3	-0.226
H2AP	1	0.662
H2AP	2	-0.422
H2AP	3	-0.257
NAT2	1	-0.0232
NAT2	2	-0.992
NAT2	3	-0.499
LINC00482	1	-0.719
LINC00482	2	0.11
LINC00482	3	-0.88
H1-2	1	3.11
H1-2	2	1.24
H1-2	3	0.464
GPR15LG	1	5.5 (active)
GPR15LG	2	-0.219
GPR15LG	3	0.22
CA5B	1	-0.45
CA5B	2	-0.784
CA5B	3	-0.053
SIRT3	1	-0.21
SIRT3	2	-0.808
SIRT3	3	3.53
PANX2	1	1.16
PANX2	2	0.386
PANX2	3	-0.479
SPTLC3	1	-0.198
SPTLC3	2	-0.0867
SPTLC3	3	2.56
ITGA11	1	0.46
ITGA11	2	-0.675
ITGA11	3	-0.604
NT5DC3	1	3.1
NT5DC3	2	-0.745
NT5DC3	3	-0.41

A run of entries taken from the entries so far, for reference:
Gene	reagent no.	G2 robust z-score
GPR15LG	3	0.22
CA5B	1	-0.45
CA5B	2	-0.784
CA5B	3	-0.053
SIRT3	1	-0.21
SIRT3	2	-0.808
SIRT3	3	3.53
PANX2	1	1.16
PANX2	2	0.386
PANX2	3	-0.479
